Assay results: US5441935A, “Growth factor receptors” (Imperial Cancer Research Technology Ltd., priority 1987, dated 1995)
Part of at least one peptide drawing is inferred or uncertain, most often the ends.

Test system: Swiss 3T3 cells
Test: DNA synthesis by [^3 H]thymidine incorporation in Swiss 3T3 cells (GRP-induced mitogenesis)
Type: cell-based, mouse
Procedure: Cell culture procedure (33), assays of DNA synthesis by ^3 H-thymidine incorporation (34) and ^125 I-GRP binding to intact cells (13) were performed as described previously.
FIG. 3. Inhibition of GRP-induced DNA synthesis by [DPro^2 ]spantide (A) and [DPhe^5 ]spantide (D). […] After 40 hours DNA synthesis was estimated by [^3 H]thymidine incorporation into acid-precipitable material. […] Each point represents the mean of duplicate determinations. […] Values are expressed as a percentage of [^3 H]thymidine incorporation obtained in the absence of antagonists (100%=8.6×10^5 cpm per dish). Each point represents the mean of 4 determinations.

CSCC[C@H](NC(=O)[C@H](CC(C)C)NC(=O)CNC(=O)[C@H](Cc1ccccc1)NC(=O)[C@H](Cc1ccccc1)NC(=O)[C@H](CCC(N)=O)NC(=O)[C@H](CCC(N)=O)NC(=O)[C@@H]1CCCN1C(=O)[C@H](CCCCN)NC(=O)[C@@H]1CCCN1C(=O)[C@@H](N)CCCNC(=N)N)C(N)=O [Substance P, reference compound]
Stimulation of DNA synthesis: nor stimulates DNA synthesis
